# According to paper doi:10.1101/2025.01.09.632086:
# Amino acid sequences for entries named in this document (tags omitted). A change or cut given only in a name is not applied to a line headed by its entry.
# UniProt P0ACD4, whole entry, looked up, stated change not applied: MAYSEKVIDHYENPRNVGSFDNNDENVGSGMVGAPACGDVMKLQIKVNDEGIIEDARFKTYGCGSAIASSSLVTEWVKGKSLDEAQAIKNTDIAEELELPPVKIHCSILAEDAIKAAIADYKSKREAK
# No constants are given. Whether binding was seen depends on the method and setting.
# Target: IscU Y11P (E. coli) (UniProt P0ACD4)
# Assay: SEC-MALS
substance,measurement,value
IscU Y11P (from UniProt P0ACD4 1-128),binding,no binding (tested: 5 mg/mL)
